# In PubChem BioAssay AID1671190 (National Center for Advancing Translational Sciences (NCATS), 2021):
# By UniProt entry, the sequences of proteins in these tests, tags left out. Where a name states a change or a piece, a line headed by the entry shows the natural chain unless it says otherwise.
# UniProt P18054: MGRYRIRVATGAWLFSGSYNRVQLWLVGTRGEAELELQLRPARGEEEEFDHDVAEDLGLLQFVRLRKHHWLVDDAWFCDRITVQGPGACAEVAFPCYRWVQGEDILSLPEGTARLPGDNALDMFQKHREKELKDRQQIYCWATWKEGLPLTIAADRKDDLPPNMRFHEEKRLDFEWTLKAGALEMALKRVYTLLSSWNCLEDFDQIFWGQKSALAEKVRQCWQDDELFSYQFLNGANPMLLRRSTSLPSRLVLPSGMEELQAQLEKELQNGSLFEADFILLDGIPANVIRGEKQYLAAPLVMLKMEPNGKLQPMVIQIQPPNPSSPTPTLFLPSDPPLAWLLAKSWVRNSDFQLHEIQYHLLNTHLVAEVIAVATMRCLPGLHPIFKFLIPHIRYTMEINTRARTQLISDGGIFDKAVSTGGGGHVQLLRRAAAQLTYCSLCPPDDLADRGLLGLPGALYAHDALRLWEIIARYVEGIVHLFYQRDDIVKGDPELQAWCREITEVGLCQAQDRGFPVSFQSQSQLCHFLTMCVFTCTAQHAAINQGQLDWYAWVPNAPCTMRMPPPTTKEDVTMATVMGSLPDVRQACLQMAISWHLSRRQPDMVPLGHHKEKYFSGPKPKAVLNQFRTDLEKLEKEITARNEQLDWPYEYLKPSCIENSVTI
# “And” between values parts separate entries of the source, which are not always exact repeats. Equal entries are not always repeated. Screen size: about 580,000 compounds; about 6,100 (1.1%) were called active. The shares of active, inactive and inconclusive entries below differ from those in the screen. The call rests on the fitted dose curve; in most records, active means well fitted inhibition curve with a large enough effect; inconclusive means small, poorly fitted or top-dose-only effect, or another doubt; inactive means no such curve, though single readings can be large or run the other way. Potencies of inconclusive entries are doubtful fits and often do not repeat.
# Target: Polyunsaturated fatty acid lipoxygenase ALOX12 (Homo sapiens) (UniProt P18054)
# Experiment: Primary qHTS assay for inhibitors of human arachidonate 12S-lipoxygenase (ALOX12): Round 2
# Details: purified 12hLO, xylenol orange hydroperoxide absorbance; series mostly up to 108 µM
# Summary of the method: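 Hydroperoxide product was detected by ferrous iron/xylenol orange as the 573 to 405 nm absorbance ratio. Arachidonic acid at 40 uM (final) was turned over for 30 min at room temperature by 150 nM human 12hLO, pH 7.0 Hepes buffer, after 15 min compound preincubation.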
# Potency means the concentration at half of the fitted maximal effect.
row,SMILES,Potency
1,CN(C)C(=O)c1ccc(NC(=O)c2ccc(-c3ccc(Cl)cc3)o2)cc1,"inconclusive: 100 µM [inhibitor, single point]"
2,CN(c1cc2c(c3c1ccn3C)C1CCC2O1)C1CCCCC1 (stereo not drawn),"inconclusive: 89.1 µM [inhibitor, partial curve, poor fit]"
3,CCCCNc1ncnc2c1cnn2Cc1ccc(Cl)cc1,"inconclusive: 44.7 µM [inhibitor, partial curve, poor fit]"
4,CCCc1nc2ccc(C(=O)OC)cn2c1Cc1ccc(C)cc1,active: 10 µM
5,COc1ccc2ccccc2c1CN1CCSCC1,active: 1.58 µM
6,CCOC(=O)c1ccc(N2C(=O)[C@@H]3C(Cc4ccc(O)cc4)NC4(C(=O)Nc5ccc(F)cc54)[C@@H]3C2=O)cc1 (stereo partly drawn),"inconclusive: 100 µM [inhibitor, single point]"
7,COC(=O)c1ccc(/C=C(/C#N)C(=O)c2c(Cl)cccc2Cl)cc1,"inconclusive: 35.5 µM [inhibitor, partial curve, poor fit]"
8,CC(NC(=O)Nc1ccc(Cl)cc1)C(c1cccs1)N1CCOCC1 (stereo not drawn),inactive
9,COC(=O)C1=C(C)N(Cc2cccc(C(F)(F)F)c2)C(=NCc2ccc(OC)cc2)NC1c1cccc(Cl)c1 (stereo not drawn),"inconclusive: 44.7 µM [inhibitor, partial curve, poor fit]"
10,CN(C)/C=C/C(=O)c1cnc(-c2ccccc2)s1,"inconclusive: 70.8 µM [inhibitor, single point]"
11,NC(=O)C1CCN(C(=O)c2ccc(Cl)c(S(=O)(=O)NCc3ccco3)c2)CC1,inactive
12,COc1ccc(C2=NOC3(CC(=O)N(c4ccc(F)cc4)C3=O)C2)cc1 (stereo not drawn),"inconclusive: 35.5 µM [inhibitor, partial curve, poor fit]"
13,Cn1c(SCC(=O)c2ccc3c(c2)Cc2ccccc2-3)nnc1-c1ccccc1,inactive
14,O=C(N[C@@H](Cn1cc(Cl)c(=O)[nH]c1=O)C(=O)O)C1CCCCC1,inactive
15,COc1ccc(-c2csc(NC(=O)Cc3cc(OC)c(OC)c(OC)c3)n2)cc1OC,inactive
16,O=C(Cn1cnc2ccccc2c1=O)OCC(=O)c1ccc2c(c1)OCCO2,"inconclusive: 100 µM [inhibitor, single point] and inconclusive: 50.1 µM [inhibitor, single point]"
17,CN(C)CCCNC(=O)/C(=C/c1ccc(-c2ccc([N+](=O)[O-])cc2)o1)NC(=O)c1ccccc1,"inconclusive: 158 µM [inhibitor, partial curve, poor fit]"
18,Cc1nc(-c2cn(C3CCCN(C(=O)c4c(F)cccc4F)C3)nn2)no1 (stereo not drawn),inactive

# Part of the list above in order of length of the SMILES, low to high.
row,SMILES,Potency
5,COc1ccc2ccccc2c1CN1CCSCC1,active: 1.58 µM
18,Cc1nc(-c2cn(C3CCCN(C(=O)c4c(F)cccc4F)C3)nn2)no1 (stereo not drawn),inactive
13,Cn1c(SCC(=O)c2ccc3c(c2)Cc2ccccc2-3)nnc1-c1ccccc1,inactive
